Test results taken from PubChem BioAssay AID1259354 (Paczesny and Yang Labs, IUPUI and University of Michigan, 2018).
Several values for one entry are separate records, joined by “and”; a condition that tells them apart may be missing. Equal entries are not always repeated. The whole screen tested about 78,000 compounds, of which about 1,800 (2.3%) were called active. This list was built around the results that the source calls inconclusive (neither active nor inactive); the mix of calls is not that of the screen. Cut-off read from the data, not from the text of the source: active = inhibition above about 30%; inconclusive = mostly about 10% to 28%; inactive = weaker than that.

Amino acid sequences for entries named in this document (tags omitted). A change or cut given only in a name is not applied to a line headed by its entry.
UniProt Q01638: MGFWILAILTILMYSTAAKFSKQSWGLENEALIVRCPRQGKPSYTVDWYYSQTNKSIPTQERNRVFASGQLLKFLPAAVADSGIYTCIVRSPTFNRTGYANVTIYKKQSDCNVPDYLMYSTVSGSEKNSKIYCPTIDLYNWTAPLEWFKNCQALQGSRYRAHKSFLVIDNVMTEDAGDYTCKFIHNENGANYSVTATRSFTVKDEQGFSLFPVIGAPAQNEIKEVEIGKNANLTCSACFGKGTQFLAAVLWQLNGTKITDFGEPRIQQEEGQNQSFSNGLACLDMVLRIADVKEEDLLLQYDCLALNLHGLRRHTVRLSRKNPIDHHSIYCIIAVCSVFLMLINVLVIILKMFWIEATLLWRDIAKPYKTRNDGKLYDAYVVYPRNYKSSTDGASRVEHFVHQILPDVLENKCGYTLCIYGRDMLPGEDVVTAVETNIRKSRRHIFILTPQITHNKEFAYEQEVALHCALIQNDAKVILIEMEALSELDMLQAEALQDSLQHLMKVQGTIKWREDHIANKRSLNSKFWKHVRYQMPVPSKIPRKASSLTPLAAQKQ

Molecular target: Interleukin-1 receptor-like 1 (Homo sapiens) (UniProt Q01638)
Assay: blocks human ST2 binding to IL-33, primary screen, biochemical, AlphaLISA (AID 1259354)
Settings: AlphaLISA ST2-Fc/biotin-IL-33 interaction, 1 h; at 17 µM, stronger effect = higher value

Row | SMILES | inhibition
1 | Cc1c(C(=O)NC(C)C)oc2ccc(S(=O)(=O)N3CCOCC3)cc12 | inactive
2 | CCN(CCn1c(=O)oc2ccccc21)CC1CCOCC1 | inactive
3 | O=C(Nc1ccc(F)cc1Cl)c1cc2c(=O)oc3ccccc3c2s1 | inactive
4 | CCC(=O)Nc1ccc(OCC(=O)N2CCCC2c2ccccc2C)cc1 (configuration not stated) | inactive
5 | Cc1nc(CC(=O)N2CCC(c3ccccc3C(=O)O)C2)cs1 (configuration not stated) | inconclusive: 19%
6 | CC(=O)Nc1cccc2nc(CN3CCCC(CO)(Cc4cccc(Cl)c4)C3)ccc12 (configuration not stated) | inconclusive: 10%
7 | Cc1ccc(Nc2cc(C)nc(Nc3ccc(NC(=O)CC(C)C)cc3)n2)cc1 | inconclusive: 23%
8 | O=c1c(O)c(-c2ccc(O)cc2O)oc2cc(O)cc(O)c12 | inconclusive: 20%
9 | CC(C)(C)c1ccc(OCCCCSC#N)cc1 | inactive
10 | Cc1ccsc1[C@@H]1CCN(C(=O)c2cccc(OCC(N)=O)c2)C[C@H]1O | inconclusive: 16%
11 | Cc1ccc(C(=O)O/N=C(/N)c2ccccn2)cc1C | inconclusive: 18%
12 | CC(C)c1ccc(S(=O)(=O)N=C2C=C(Br)C(=O)c3ccccc32)cc1 | inconclusive: 24%
13 | Cc1cccc(-n2c(CN3CCNCC3)nc3cccnc32)c1 | inactive
14 | CCc1ccc(CN2CCN(c3ncccn3)CC2)cc1 | inconclusive: 11%
15 | O=C(CCc1c[nH]c2ccccc12)N1CCC(CO)(Cc2cccc(C(F)(F)F)c2)CC1 | inactive
16 | O=C(Nc1cccc2c1C(=O)c1ccccc1C2=O)c1cc2ccccc2c(=O)o1 | inconclusive: 18%
17 | CC(C)c1ccc(C2CC(c3ccccc3Cl)Nc3nc(N)nn32)cc1 (configuration not stated) | inconclusive: 11%
18 | Cc1ccccc1CSC1=NCCN1C(=O)c1ccccc1 | inconclusive: 21%
19 | O=C(Cn1cnc2c(cnn2-c2ccccc2)c1=O)c1ccc(Cl)cc1 | inconclusive: 15%
20 | Cc1ccc([N+](=O)[O-])cc1NC(=O)C(C)Oc1ccccc1 (configuration not stated) | inconclusive: 19%
21 | O=C(CC1C(=O)NCCN1Cc1cccc(C(F)(F)F)c1)NCCc1ccccc1 (configuration not stated) | inconclusive: 21%
22 | Cc1cc(C(=O)N2CCCC(CCc3ccc(F)cc3)C2)cc2sc(N)nc12 (configuration not stated) | inactive
23 | Cc1ccc2[nH]cc(-c3cncc(C(=O)O)c3)c2c1 | inactive

Row | SMILES | inhibition
24 | O=C(CCN1CCCCC1)c1ccc(Cl)cc1 | inactive
25 | CCN(Cc1noc(CC(C)C)n1)C(=O)c1ccc2nc(C)c(C)nc2c1 | inconclusive: 10%
26 | O=C1OCc2ccc(CN3CCC(N4CCCC4=O)CC3)c3cccc1c23 | inconclusive: 11%
27 | CC1(C)CC(=O)C2=C(C1)N(c1ccccc1F)C(N)=C(C#N)C2c1cccc([N+](=O)[O-])c1 (configuration not stated) | inconclusive: 14%
28 | Cc1ncsc1CCC(=O)N(C)Cc1cc(C2CC2)n[nH]1 | inactive
29 | CC(CCc1ccccc1)NC(=O)c1cc2ccccc2o1 (configuration not stated) | inactive
30 | Nc1nc(SCC(=O)N2CCC(c3ccccc3Cl)C2)n[nH]1 (configuration not stated) | inconclusive: 11%
31 | Cc1ccc(C(=O)Nc2ccc(Nc3nc(C)cc(Nc4ccccc4)n3)cc2)cc1 | inconclusive: 21%
32 | CCOc1ccc(-c2nc3cc(NC(=O)c4ccc(F)cc4)ccc3o2)cc1 | inactive
33 | Cc1ccc(Cn2c(CNC(=O)c3ccncc3)nc3cccnc32)cc1 | inconclusive: 10%
34 | COc1ccc(N2CSC3=C(C#N)C(c4ccccc4Cl)CC(=O)N3C2)cc1 (configuration not stated) | inconclusive: 17%
35 | Cc1oc(-c2cccs2)nc1CN1CCCC(CCC(=O)Nc2ccccc2F)C1 (configuration not stated) | inconclusive: 12%
36 | CN1C[C@@H](NC(=O)c2cnccn2)C[C@H]1c1nc(-c2ccc(OC(F)(F)F)cc2)no1 | inactive
37 | CC(=O)c1ccc(C(=O)N(CC#Cc2ccccc2)CC(C)C)s1 | inconclusive: 12%
38 | O=C(Nc1cccc(N2CCCS2(=O)=O)c1)c1ccc(Br)cc1 | inconclusive: 17%
39 | COc1ccc(-c2cc(-c3ccccc3)nc(Br)c2C#N)cc1 | inactive
40 | CC1(C)CC(=O)C2=C(C1)OC(N)=C(C#N)[C@@]21C(=O)N(CC(N)=O)c2ccccc21 | inconclusive: 10%
41 | CCOc1ccc(N2CC(NC(=O)c3ccccc3)CC2=O)cc1 (configuration not stated) | inconclusive: 14%
42 | CCc1ncc2c(n1)CN(C(=O)c1ccc(-n3ccnc3)cc1)C2 | inactive
43 | CCN(CC)C(=O)C1CCCN(Cc2cc(OC)c(OC)c(OC)c2)C1 (configuration not stated) | inconclusive: 13%
44 | O=C(c1ccc2c(c1)C(=O)N(c1ccccn1)C2=O)c1ccc2c(c1)C(=O)N(c1ccccn1)C2=O | inconclusive: 16%
45 | CCOc1ccc(-n2cc(-c3ccc(Br)cc3)[nH]c2=O)cc1 | inconclusive: 20%
46 | CC(=O)Nc1ccc(CN2C[C@H](O)C[C@H]2c2nc(-c3ccccc3)no2)cc1 | inconclusive: 12%

Row | SMILES | inhibition
47 | CCC1C=C(c2ccc([N+](=O)[O-])cc2)OC(N2CCCCC2)C1C (configuration not stated) | inconclusive: 25%
48 | Cc1cc(Br)cc2c1=NC(=O)C=2c1sc(Nc2ccc(F)cc2)nc1O | inconclusive: 16%
49 | CC1(C)[C@H]2CC[C@]1(C)[C@H](OCCN(CCNC(=O)Nc1ccccc1)C(=O)Nc1ccccc1)C2 | inconclusive: 10%
50 | O=C1OC(C(=O)Nc2ccc(Cl)c(C(F)(F)F)c2)Cc2ccccc21 (configuration not stated) | inconclusive: 14%
51 | O=C(Nc1ccccc1)c1cc2n(n1)CCCN(C(=O)[C@H](O)c1ccccc1)C2 | inconclusive: 11%
52 | N#Cc1c(NC(=O)c2cc(-c3ccccc3O)on2)sc2c1CCC2 | inconclusive: 16%
53 | COc1ccc(CNc2oc(COc3ccc(OC)cc3)nc2C#N)cc1 | inactive
54 | O=C(NC1CC1)c1ccc2c(c1)N(Cc1ccc(F)cc1)C(=O)CS2 | inconclusive: 15%
55 | Cc1cc(C(F)(F)F)c(C#N)c(SCC(=O)c2ccc([N+](=O)[O-])cc2)n1 | active: 60%
56 | CC1(C)CCN2CCC(C)(C)c3c(O)ccc1c32 | active: 73%
57 | CCc1ccc(NS(=O)(=O)c2cc(Br)cc3c2N(C(C)=O)C(C)C3)cc1 (configuration not stated) | inactive
58 | O=C1CC(c2ccccc2)CC(O)=C1C=Nc1cc(Br)ccc1O (configuration not stated) | inconclusive: 13%
59 | COc1cc2c(cc1-c1nccn1C(C)c1ccc(-n3cncn3)cc1)OCO2 (configuration not stated) | inconclusive: 12%
60 | CC1=C(C(=O)N2CCOCC2)C(c2ccccc2F)n2c(nc3ccccc32)N1 (configuration not stated) | inactive
61 | Cc1ccc(OCC(=O)Nc2ccccc2C(N)=O)cc1 | inconclusive: 20%
62 | CC1=C(C(=O)Nc2ccc(C)cn2)C(c2cccc(Cl)c2)C2=C(CCCC2=O)N1 (configuration not stated) | inactive
63 | Oc1c(CN2CCCCCC2)cc(Cl)c2cccnc12 | inconclusive: 18%
64 | CCN(CC)C(=O)[C@@H]1C[C@H](N)CN1C(=O)c1c(C)n(C)c2ccc(O)cc12 | inconclusive: 16%
65 | O=C(c1cccnc1N1CCC(O)(C(=O)O)CC1)N1CCCCC1 | inconclusive: 15%
66 | O=C1NC(=O)C(Cc2ccccc2F)(C2CCNCC2)N1 (configuration not stated) | inconclusive: 13%
67 | O=C(C1CCCCC1)N1CCCc2ccccc21 | inconclusive: 13%
68 | CC(=O)Nc1ccc(S(=O)(=O)Nc2ccc3n(c2=O)C[C@H]2C[C@@H]3CN(C(=O)c3ccc(-c4ccccc4)cc3)C2)cc1 | inconclusive: 11%
69 | COc1ccc(NC(=O)N2Cc3[nH]cnc3C[C@H]2c2nc(-c3ccccc3)no2)cc1 | inconclusive: 23%

Quoted at random: 5 compounds from above
Row | SMILES | inhibition
50 | O=C1OC(C(=O)Nc2ccc(Cl)c(C(F)(F)F)c2)Cc2ccccc21 (configuration not stated) | inconclusive: 14%
5 | Cc1nc(CC(=O)N2CCC(c3ccccc3C(=O)O)C2)cs1 (configuration not stated) | inconclusive: 19%
20 | Cc1ccc([N+](=O)[O-])cc1NC(=O)C(C)Oc1ccccc1 (configuration not stated) | inconclusive: 19%
37 | CC(=O)c1ccc(C(=O)N(CC#Cc2ccccc2)CC(C)C)s1 | inconclusive: 12%
65 | O=C(c1cccnc1N1CCC(O)(C(=O)O)CC1)N1CCCCC1 | inconclusive: 15%

Additional compounds:

Row | SMILES | inhibition
70 | COc1ccc2nc(C)cc(Nc3ccccc3OC)c2c1 | inactive
71 | Cc1cccc(S(=O)(=O)N2CCSC2c2cccc([N+](=O)[O-])c2)c1 (configuration not stated) | inconclusive: 15%
72 | COc1ccc(-c2cc(CC3(NCC4CCCCC4)COC3)no2)cc1 | inactive
73 | Cc1nc2c(C(=O)NC3CCCC3)c[nH]n2c(=O)c1Cc1ccc(Cl)cc1 | inconclusive: 12%
74 | COc1ccccc1C1CC(c2ccccc2)=NN1C(=O)c1ccccc1 (configuration not stated) | inactive
75 | O=C(CNS(=O)(=O)c1cccs1)NCc1cccnc1 | active: 79%
76 | O=c1c(CN2CCN(C/C=C/c3ccccc3)CC2)coc2ccccc12 | inactive
77 | CC(NC(=O)c1ccccc1C(=O)NC(C)c1ccccc1)c1ccccc1 (configuration not stated) | inactive
78 | CC(=O)c1ccc(N2CCN(c3ncnc(N)c3[N+](=O)[O-])CC2)cc1 | inconclusive: 16%
79 | Cn1c(=O)c2c(SCC(=O)N3CCCCC3)nc(-c3ccco3)nc2n(C)c1=O | inactive
80 | CC(=O)Nc1ccc(S(=O)(=O)N2CCN(c3nc(C)cc(N4CCOCC4)n3)CC2)cc1 | inconclusive: 13%
81 | COCCCNC(=O)c1cccn2c(=O)c3cc4ccccc4cc3nc12 | active: 30%
82 | Fc1cccc(CN2CCN(c3ccccn3)CC2)c1 | inactive
83 | CSc1oc(-c2ccccc2)nc1S(=O)(=O)c1ccc(Br)cc1 | inconclusive: 11%
84 | CCS(=O)(=O)c1ncc(CN2C[C@@H]3CCCC2C3)n1CCCc1ccccc1 | inactive
85 | COc1ccc(Cn2c(CNC(=O)c3cccc(OC)c3)nc3cccnc32)cc1 | inconclusive: 15%
86 | Fc1cccc(/C=N\N=C/c2cccc(F)c2)c1 | inconclusive: 28%
87 | O=C(OC[C@H]1O[C@@H](OC(=O)c2cc(O)c(O)c(O)c2)[C@H](OC(=O)c2cc(O)c(O)c(O)c2)[C@@H](OC(=O)c2cc(O)c(O)c(O)c2)[C@@H]1O)c1cc(O)c(O)c(O)c1 | inactive
88 | COc1ccc(N2CCN(Cc3cc(Br)c(OC)cc3OC)CC2)cc1 | inconclusive: 20%
89 | O=C(CCc1nc2ccccc2s1)NC1CCCN(C2Cc3ccccc3C2)C1 (configuration not stated) | inactive
90 | COc1ccc(-c2ncnn2-c2sc3c(c2C#N)CCCCC3)cc1OC | active: 48% and active: 44%
91 | CC(=O)Nc1ccc(NC(=O)C2CC2(c2ccccc2)c2ccccc2)cc1 (configuration not stated) | inconclusive: 11%
92 | Cc1cc(=O)n2ccc([N+](=O)[O-])c(O)c2n1 | inactive

Part of the list above, reformatted.
Row	SMILES	inhibition
81	COCCCNC(=O)c1cccn2c(=O)c3cc4ccccc4cc3nc12	active: 30%
82	Fc1cccc(CN2CCN(c3ccccn3)CC2)c1	inactive
83	CSc1oc(-c2ccccc2)nc1S(=O)(=O)c1ccc(Br)cc1	inconclusive: 11%
